Results from paper PMC8425412.
Results are given in words; binding and its absence hold for the method and conditions named. Binding seen in cells or lysates may run through a third protein. Binding calls can cover weak binding; strength is not graded here. Tags and fused reporters may be left off the sequences shown.

Target: T1, GFP-PDK1 PH domain (UniProt O15530)
T1 sequence: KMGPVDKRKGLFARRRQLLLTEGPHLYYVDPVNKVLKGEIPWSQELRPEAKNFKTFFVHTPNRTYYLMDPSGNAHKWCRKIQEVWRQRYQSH
Assay: co-IP; HEK293T cells co-transfected, 24 h; lysate in 20 mM Tris/HCl pH 8, 150 mM NaCl, 1% Triton X-100; precipitated with anti-GFP and protein A/G at 4°C for 2 h; Western blot; in Figures 5D, E cells treated with TAT-conjugated peptides

HA-Akt (PKB/Akt, protein kinase B) (enzyme)
binding: binds
